Measurements reported in PubChem BioAssay AID504784 (Drosophila RNAi Screening Center, 2011).
Screen: 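Fly genes whose silencing alters how much lipid cells keep in droplets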 (primary screen). System: Drosophila Kc167 embryonic cells. Reagents: long dsRNA against Drosophila genes, about 250 ng dsRNA per well. Time to read-out: 4 days. Conditions: cells fed 400 µM oleic acid bound to BSA. Read-out: 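Microscope images give a droplet-to-nucleus area ratio, taken as log and converted to a screen-wide B-score; higher values mean greater lipid storage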. Direction: droplet/nuclear area B-score: higher = more stored lipid (overstorage).
In all, the deposit lists about 17,000 reagents; below is a random part of those that have a named target and a result. 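Each column is one replicate's B-score; the combined score over replicates was not deposited, so single values may mislead.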 A plus sign joins genes that one reagent is predicted to hit.

gene knocked down,DRSC id,"droplet/nuclear area B-score, replicate 1","droplet/nuclear area B-score, replicate 2","droplet/nuclear area B-score, replicate 3"
CG6830 (GeneID 41408),DRSC16124,-0.308,-0.762,
scrib (GeneID 44448),DRSC13774,0.0281,-1.17,
scrib (GeneID 44448),DRSC15809,-0.183,5.1,
scrib (GeneID 44448),DRSC17051,-1.48,-0.737,
Raf (GeneID 31221),DRSC18821,0.728,1.89,
Raf (GeneID 31221),DRSC23311,0.169,0.151,
CG9016 (GeneID 33822),DRSC03127,1.38,1.15,
CG13044 (GeneID 39795),DRSC09925,-0.245,0.00769,
CG13033 (GeneID 39839),DRSC09913,-0.34,0.00143,
CenB1A (GeneID 42735),DRSC16923,-0.0611,0.385,-0.0844
CG7059 (GeneID 42626),DRSC16187,-0.471,-0.932,
Tmf (GeneID 31629),DRSC18368,-0.856,1.42,
stops (GeneID 43683),DRSC15095,-0.581,-0.674,
stops (GeneID 43683),DRSC15096,0.65,0.00593,
stops (GeneID 43683),DRSC15097,-0.078,2.1,
His4r (GeneID 41773),DRSC16703,3.36,2.37,
Bdp1 (GeneID 34748),DRSC03192,0.0968,1.95,
Crg-1 (GeneID 43900),DRSC22882,0.03,-1.72,
S-Lap5 (GeneID 36515),DRSC06732,1.05,-0.575,
rho (GeneID 38168),DRSC08734,0.0542,-0.309,
Obp18a (GeneID 32897),DRSC19736,-0.36,-1.32,
CG15312 (GeneID 31940),DRSC18000,2.39,2.18,-0.764
Pi4KIIalpha (GeneID 40670),DRSC12322,-4.38,1.27,
Pi4KIIalpha (GeneID 40670),DRSC12323,-0.309,-0.564,
dy (GeneID 32130),DRSC20325,-1.57,-0.292,-0.437
CG14332 (GeneID 42098),DRSC14811,0.569,0.0321,
CG43999 (GeneID 42827),DRSC14605,-0.152,0.147,
DIP-zeta (GeneID 34231),DRSC02203,-0.0937,-0.73,
DIP-zeta (GeneID 34231),DRSC02204,-0.0337,0.102,0.0791
DIP-zeta (GeneID 34231),DRSC02205,1.05,-0.991,
CG13877 + pyx,DRSC08347,-0.27,-0.506,
Tsp42Eg (GeneID 35616),DRSC06112,0.158,-0.224,
CG7381 (GeneID 41589),DRSC16238,-0.0173,-0.429,
Hsp70Bc (GeneID 48583),DRSC16053,2.35,2.48,
